Data taken from paper PMC5571219.
Results are given in words; binding and its absence hold for the method and conditions named. In cells and extracts the contact can be indirect. A result given as binding can be weak or reduced; the word gives no strength. Tags and fused reporters may be left off the sequences shown.

The chains behind the UniProt entries cited, without tags or fusion partners. Where a name states a change or a piece, a line headed by the entry shows the natural chain unless it says otherwise.
UniProt P24814: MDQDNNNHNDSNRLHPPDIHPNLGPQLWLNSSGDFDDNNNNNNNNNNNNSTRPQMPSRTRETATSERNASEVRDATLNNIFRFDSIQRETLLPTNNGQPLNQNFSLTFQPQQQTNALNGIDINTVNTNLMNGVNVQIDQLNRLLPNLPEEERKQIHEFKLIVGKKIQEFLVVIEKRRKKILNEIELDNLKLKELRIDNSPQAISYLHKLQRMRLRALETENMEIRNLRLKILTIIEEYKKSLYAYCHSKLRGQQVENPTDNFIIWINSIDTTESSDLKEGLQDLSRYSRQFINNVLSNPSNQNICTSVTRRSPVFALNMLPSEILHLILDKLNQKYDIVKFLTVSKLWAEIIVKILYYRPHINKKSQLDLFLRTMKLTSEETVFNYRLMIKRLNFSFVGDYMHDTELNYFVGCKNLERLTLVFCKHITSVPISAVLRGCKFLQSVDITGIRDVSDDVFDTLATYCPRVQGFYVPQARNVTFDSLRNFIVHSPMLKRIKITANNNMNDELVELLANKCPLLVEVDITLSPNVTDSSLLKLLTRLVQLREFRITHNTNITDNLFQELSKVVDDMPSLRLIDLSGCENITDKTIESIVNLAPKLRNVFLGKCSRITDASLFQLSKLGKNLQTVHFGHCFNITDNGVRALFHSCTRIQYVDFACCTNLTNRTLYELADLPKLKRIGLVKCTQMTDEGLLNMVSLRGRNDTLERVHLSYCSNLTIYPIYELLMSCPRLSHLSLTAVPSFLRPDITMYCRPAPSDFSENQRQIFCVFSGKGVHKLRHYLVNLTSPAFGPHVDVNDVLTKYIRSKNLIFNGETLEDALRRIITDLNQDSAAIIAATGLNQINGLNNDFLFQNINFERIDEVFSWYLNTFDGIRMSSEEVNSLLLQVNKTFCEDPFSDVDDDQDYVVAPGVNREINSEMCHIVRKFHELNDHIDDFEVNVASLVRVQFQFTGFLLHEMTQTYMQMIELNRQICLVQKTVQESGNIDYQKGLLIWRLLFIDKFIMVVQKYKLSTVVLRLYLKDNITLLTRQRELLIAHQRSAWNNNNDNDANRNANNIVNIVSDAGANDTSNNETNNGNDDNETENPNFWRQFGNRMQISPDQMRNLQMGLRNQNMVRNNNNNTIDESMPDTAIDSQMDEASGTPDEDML

Biological target: T1, HA-tagged wild-type Whi7 (plasmid pWHI7) (S. cerevisiae) (UniProt P36167)
T1 sequence: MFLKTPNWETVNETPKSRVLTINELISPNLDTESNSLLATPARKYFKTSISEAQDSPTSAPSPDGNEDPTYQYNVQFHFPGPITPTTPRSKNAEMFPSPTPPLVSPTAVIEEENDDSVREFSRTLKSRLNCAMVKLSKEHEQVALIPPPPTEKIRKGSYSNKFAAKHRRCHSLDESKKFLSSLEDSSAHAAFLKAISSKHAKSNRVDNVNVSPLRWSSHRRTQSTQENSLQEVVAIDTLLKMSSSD
Assay: co-IP; HA-tagged Whi7 or Whi5 immunoprecipitated from yeast crude extracts with HA-probe (F-7) antibody on Dynabeads Protein G, 20 min at room temperature; 50 mM Tris-HCl pH 8, 250 mM NaCl, 5 mM EDTA, 0.1% Triton X-100; western blot of input, unbound and immunoprecipitated fractions; for Grr1ΔF-flag cells were grown on raffinose and transferred to galactose for 4 h

For “flag-tagged Grr1 lacking its F-box (Grr1ΔF) (from UniProt P24814)”, the binding was “binds”.
